Results: PubChem BioAssay AID1347076 (National Center for Advancing Translational Sciences (NCATS), 2019)
Screen size: about 400,000 compounds; about 13,000 (3.2%) were called active. The shares of active, inactive and inconclusive entries below differ from those in the screen. Calls come from the whole dose curve; as a rule, active = well fitted cell-killing curve with a large enough effect; inconclusive = small, poorly fitted or top-dose-only effect, or effect the other way; inactive = flat fitted curve, though single readings scatter. Potencies beside an inconclusive call are fits to weak or partial responses and may not hold up.

Assay: qHTS assay for MDR1-selective chemotherapeutics: Primary screen using the drug-selected MDR subline cells KB-V1; note: nearly all actives have a fitted effect of over 60% in size
Settings: KB-V1 MDR cells viability, CellTiter-Glo, 72 h; activity change, negative = cytotoxicity: at 46.1 µM (top of the series)
Summary of the method: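 Cytotoxicity via CellTiter-Glo luminescence after 72 h compound exposure at 37 degrees C. Cells: drug-selected KB-V1 line, DMEM phenol-red free plus 10% FBS. Compounds tested at multiple concentrations; normalized data fitted to concentration-effect curves.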
% is set by controls: 0 for no effect and ±100 for the full control effect; potency is the fitted concentration of half-maximal effect.

Row | Structure (SMILES) | Potency | activity change, negative = cytotoxicity
1 | COC(=O)[C@]12CCCCC=C1N(Cc1ccc3c(c1)OCO3)C(=O)[C@H](CC(=O)NCc1cccc3ccccc13)C2 | active: 23.1 µM | 
2 | COCCNC(=O)C(c1ccc(C)cc1)N(Cc1ccccc1)C(=O)CCC(=O)Nc1ccccn1 (stereo unspecified) | inconclusive: 14.6 µM [cytotoxic, partial curve] | 
3 | Cc1ccc(-c2nc(C)sc2CC(=O)OCC(=O)Nc2cccc([N+](=O)[O-])c2)cc1 | inactive | 
4 | Cc1nn(Cc2ccccc2)c(Cl)c1/C=N/NC(=O)c1cccnc1 | inactive | 
5 | CCc1nn2c(=O)cc(COC(=O)COc3ccc(OC)cc3)nc2s1 | inconclusive: 25.9 µM [rising, partial curve, poor fit] | 
6 | CCOC(=O)c1sc2ncn(CC(=O)Nc3ccc(OCC)cc3)c(=O)c2c1C | inactive | 
7 | Cc1ccc(C(=O)Nc2ccccc2C(=O)O)cc1S(=O)(=O)Nc1ccc(Br)cc1 | inactive | 
8 | CC1Cc2ccccc2N1C(=S)NC(=O)c1cccc(Br)c1 (stereo unspecified) | inconclusive: 23.1 µM [cytotoxic, single point] | 
9 | O=C(Nc1ccc([N+](=O)[O-])cc1Cl)c1cc(Cl)cc(Cl)c1O | inconclusive: 18.4 µM [cytotoxic, partial curve, poor fit] | 
10 | CCc1ccc(S(=O)(=O)Nc2cc3c(C(=O)OCc4ccccc4)c(C)oc3c3ccccc23)cc1 | inactive | 
11 | Cn1c(=O)c2c(nc(NCCCN3CCOCC3)n2Cc2ccc(Cl)cc2)n(C)c1=O | inactive | 
12 | COc1ccc(-c2nc(C)c(CCNS(=O)(=O)c3cc(Cl)ccc3Cl)s2)cc1 | active: 20.6 µM | 
13 | O=c1[nH]c2ccccc2n1C1=CCNCC1 | inconclusive: 29.1 µM [rising, single point] | 
14 | CCOC(=O)c1ccccc1N/C=C1\CCCCC1=O | inconclusive: 20.6 µM [cytotoxic, partial curve] | 
15 | Cc1ccc(N2CC(C(N)=O)CC2=O)cc1C (stereo unspecified) | inconclusive: 13 µM [rising, partial curve, poor fit] | 
16 | CCOC(=O)N1CCN(C(=O)COC(=O)c2oc3ccc(OC)cc3c2C)CC1 |  | inconclusive: -23.6%
17 | CC(=O)c1ccc(NC(=O)COC(=O)c2ccccc2Nc2ccccc2)cc1 | inactive | 
18 | Cc1ccc(S(=O)(=O)N2CCC(=O)N([C@H](COC(=O)Nc3ccccc3)Cc3ccccc3)CC2)cc1 | inconclusive: 9.2 µM [cytotoxic, partial curve] | 
19 | COc1ccccc1-n1c(SCC(=O)c2ccc(O)cc2O)nc2cc([N+](=O)[O-])ccc21 | active: 16.4 µM | 
20 | O=C(Nc1cccc(Cl)c1)ON1CCCCC1 | inconclusive: 18.4 µM [rising, partial curve, poor fit] | 
21 | Cc1occc1C(=O)NC(C)CCc1ccccc1 (stereo unspecified) | inactive | 
22 | NC(=O)C1CCN(C(=O)c2ccc(NC(=O)c3nsc4ccccc34)cc2)CC1 | inactive | 
23 | CCOc1ccccc1NC(=O)C(OC(=O)c1ccccc1O)c1ccccc1 (stereo unspecified) | active: 11.6 µM | 
24 | Cn1c(-c2cc3c(C(F)(F)F)nn(C)c3s2)n[nH]c1=S | inconclusive: 13 µM [cytotoxic, partial curve] | 

Row | Structure (SMILES) | Potency | activity change, negative = cytotoxicity
25 | CCOc1ccccc1N(CC)C(=O)Cn1ncc2c([nH]c3ccccc32)c1=O | inactive | 
26 | O=C(Nc1ccc(CSc2ccccc2)cc1)c1ccc(CN2CCOCC2)cc1 | inconclusive: 0.366 µM [cytotoxic, full curve, poor fit] | 
27 | O=C(O/C(=C/c1ccccc1)C(F)(F)F)c1ccccc1 | inconclusive: 32.6 µM [rising, single point] | 
28 | COc1cccc(CNC(=O)c2ccc3c(c2)c(C)c(C)n3Cc2ccccc2)c1 | inactive | 
29 | COC(=O)c1sc2cnccc2c1N | inconclusive: 29.1 µM [cytotoxic, single point] | 
30 | Clc1cccc(-c2ccc(CNCCSc3nnnn3-c3ccccc3)o2)c1 | inactive | 
31 | CCC1C(c2ccccc2)=CCC(C(=O)O)C1C (stereo unspecified) | inactive | 
32 | CCOc1ccc(NC(=O)c2cnc3scc(C)n3c2=O)cc1 | inconclusive: 29.1 µM [rising, single point] | 
33 | CCCCOC(=O)Nc1nnc(CCc2ccccc2)s1 | inconclusive: 18.4 µM [cytotoxic, single point] | 
34 | Cc1cc(=O)oc(C)c1C(=O)N1CCCCC1 | inconclusive: 20.6 µM [rising, partial curve] | 
35 | CCc1nc2ccc(C(=O)NCc3ccccc3OC)cn2c1N(CC)Cc1cccc(Br)c1 | active: 16.4 µM | 
36 | OCC1(CCc2ccccc2)CCN(Cc2ccccc2Cl)CC1 | inconclusive: 7.31 µM [cytotoxic, partial curve] | 
37 | Cc1ccc(NC(=O)CCSc2nnnn2-c2ccc3c(c2)OCO3)cc1C | inactive | 
38 | COc1cccc(Cn2cnc(-c3ccccc3OC)c2C2CC2)c1 | active: 18.4 µM | 
39 | CCN(CC(=O)Nc1cc(S(=O)(=O)N2CCCCC2)ccc1Cl)Cc1ccccc1 | inconclusive: 9.2 µM [cytotoxic, partial curve] | 
40 | CCn1c(SCC(=O)Nc2ccc3c(c2)OCCO3)nnc1C1CC1 | inactive | 
41 | CCOC(=O)Nc1ccc(OC)c([N+](=O)[O-])c1 | inconclusive: 29.1 µM [rising, single point] | 
42 | NC(=S)N1OC[C@@H]2COc3ccc4ccccc4c3[C@@H]21 | inconclusive: 29.1 µM [cytotoxic, single point] | 
43 | O=C(NCc1ccc(OC(F)(F)F)cc1)C1CCC(=O)N(C2CC2)C1 (stereo unspecified) | inconclusive: 16.4 µM [cytotoxic, single point] | 
44 | Cc1c(C(=O)NCc2ccc(F)cc2)sc(=O)n1Cc1ccc(C(=O)c2ccccc2)cc1 | active: 10.3 µM | 
45 | Cc1ccc(C)c(OCCC(=O)OCC(=O)NCc2ccc(F)cc2)c1 | inconclusive: 16.4 µM [rising, single point] | 
46 | COC(=O)c1cccc(Cn2c(Cl)c(/C=N/Nc3ccccc3C)sc2=O)c1 | inconclusive: 18.4 µM [cytotoxic, single point] | 
47 | COc1cccc(CN(C)C(=O)c2cccc(S(=O)(=O)NCc3ccccc3)c2)c1OC | inconclusive: 13 µM [cytotoxic, partial curve] | 
48 | COc1cc(NC(=O)c2sc3ncn(CC(=O)N4CCCC(C)C4)c(=O)c3c2C)cc(OC)c1OC (stereo unspecified) | inconclusive: 2.91 µM [rising, full curve, poor fit] | 

Row | Structure (SMILES) | Potency | activity change, negative = cytotoxicity
49 | COc1ccc(Nc2ncnc3sc(-c4ccccc4)cc23)cc1 | active: 20.6 µM | 
50 | O=C1N/C(=N\N=C\c2cccs2)SC1Cc1cccc(Cl)c1Cl (stereo unspecified) | inconclusive: 7.31 µM [cytotoxic, partial curve, poor fit] | 
51 | COC(=O)c1sccc1N/N=C/c1ccc(OC)c(OC)c1OC | inconclusive: 23.1 µM [cytotoxic, partial curve, poor fit] | 
52 | CCc1nc2ccc(C(=O)NCCCn3ccnc3)cn2c1N(C)C(=O)C1CCCCC1 | inactive | 
53 | CCOc1ccc(N2C(=O)CC(SCc3nc4ccccc4[nH]3)C2=O)cc1 (stereo unspecified) | inconclusive: 29.1 µM [rising, single point] | 
54 | CN(Cc1nc2ccccc2n1C)S(=O)(=O)c1ccc(F)cc1 | inconclusive: 20.6 µM [cytotoxic, partial curve] | 
55 | COC(=O)c1ccc(C2c3c(-c4ccccc4O)n[nH]c3C(=O)N2Cc2cccnc2)cc1 (stereo unspecified) | inconclusive: 8.2 µM [rising, single point] | 
56 | COC(=O)N1c2ccccc2CCc2ccccc21 | inconclusive: 23.1 µM [cytotoxic, single point] | 
57 | COc1ccc(CN2C(=O)c3cccc4cccc(c34)C2c2nc3ccccc3[nH]2)cc1 (stereo unspecified) | inconclusive: 9.2 µM [cytotoxic, partial curve, poor fit] | 
58 | COc1ccc(/C=C/C(=O)c2ccccc2)cc1COc1ccc(F)cc1 | inconclusive: 18.4 µM [cytotoxic, single point] | 
59 | CC(Sc1nnc(-c2cccs2)n1-c1ccccc1)C(=O)NCc1ccc2c(c1)OCO2 (stereo unspecified) | active: 8.2 µM | 
60 | Cc1ccc(NC(=O)c2cccnc2)c([N+](=O)[O-])c1 | inconclusive: 14.6 µM [cytotoxic, single point] | 
61 | CCc1ccc(NC(=O)CSc2nc(=O)n(Cc3ccccn3)c3c2CCC3)cc1 | inconclusive: 20.6 µM [cytotoxic, single point] | 
62 | CCCCC(=O)N(C)c1c(CC)nc2c(OCc3ccc(C#N)cc3)cccn12 | inconclusive: 5.17 µM [cytotoxic, partial curve] | 
63 | O=C(COC(=O)Cc1ccccc1[N+](=O)[O-])NCc1ccc(Cl)cc1 | inconclusive: 20.6 µM [rising, partial curve] | 
64 | COc1cccc(CN(C)C(=O)CNC(=O)c2cccs2)c1OC | inconclusive: 16.4 µM [cytotoxic, single point] | 
65 | CCN(CC)CCOc1ccc2c(c1)C(=NO)c1cc(OCCN(CC)CC)ccc1-2 | inactive | 
66 | O=C(NNc1c(F)c(F)cc(F)c1F)c1cc2ccccc2oc1=O | inactive | 
67 | Cc1cc(N2CCOCC2)ccc1/C=C\[N+](=O)[O-] | inconclusive: 29.1 µM [cytotoxic, single point] | 
68 | NS(=O)(=O)c1cc(C(=O)O)c(NCc2ccco2)cc1Cl | inconclusive: 20.6 µM [rising, partial curve, poor fit] | 
69 | O=C(Nc1ccc(Br)cc1)C1CCC(=O)N1Cc1ccccc1Cl (stereo unspecified) | inconclusive: 5.8 µM [cytotoxic, partial curve] | 
70 | O=C(CNC1CCN(Cc2ccccc2)CC1)Nc1ccc(S(=O)(=O)N2CCCCC2)cc1 | inconclusive: 10.3 µM [cytotoxic, partial curve] | 
71 | O=c1cc(CNc2cc(C(F)(F)F)cc(C(F)(F)F)c2)nc2sccn12 | active: 25.9 µM | 

Look-ups from the results shown.
For Potency, `COC(=O)c1ccc(C2c3c(-c4ccccc4O)n[nH]c3C(=O)N2Cc2cccnc2)cc1` (stereo unspecified) is entered as inconclusive: 8.2 µM [rising, single point]
For Potency, `Cn1c(=O)c2c(nc(NCCCN3CCOCC3)n2Cc2ccc(Cl)cc2)n(C)c1=O` is entered as inactive
For Potency, `CN(Cc1nc2ccccc2n1C)S(=O)(=O)c1ccc(F)cc1` is entered as inconclusive: 20.6 µM [cytotoxic, partial curve]
For Potency, `CCCCC(=O)N(C)c1c(CC)nc2c(OCc3ccc(C#N)cc3)cccn12` is entered as inconclusive: 5.17 µM [cytotoxic, partial curve]
